# Test results taken from PubChem BioAssay AID1671190 (National Center for Advancing Translational Sciences (NCATS), 2021).
# Amino acid sequences for entries named in this document (tags omitted). A change or cut given only in a name is not applied to a line headed by its entry.
# UniProt P18054: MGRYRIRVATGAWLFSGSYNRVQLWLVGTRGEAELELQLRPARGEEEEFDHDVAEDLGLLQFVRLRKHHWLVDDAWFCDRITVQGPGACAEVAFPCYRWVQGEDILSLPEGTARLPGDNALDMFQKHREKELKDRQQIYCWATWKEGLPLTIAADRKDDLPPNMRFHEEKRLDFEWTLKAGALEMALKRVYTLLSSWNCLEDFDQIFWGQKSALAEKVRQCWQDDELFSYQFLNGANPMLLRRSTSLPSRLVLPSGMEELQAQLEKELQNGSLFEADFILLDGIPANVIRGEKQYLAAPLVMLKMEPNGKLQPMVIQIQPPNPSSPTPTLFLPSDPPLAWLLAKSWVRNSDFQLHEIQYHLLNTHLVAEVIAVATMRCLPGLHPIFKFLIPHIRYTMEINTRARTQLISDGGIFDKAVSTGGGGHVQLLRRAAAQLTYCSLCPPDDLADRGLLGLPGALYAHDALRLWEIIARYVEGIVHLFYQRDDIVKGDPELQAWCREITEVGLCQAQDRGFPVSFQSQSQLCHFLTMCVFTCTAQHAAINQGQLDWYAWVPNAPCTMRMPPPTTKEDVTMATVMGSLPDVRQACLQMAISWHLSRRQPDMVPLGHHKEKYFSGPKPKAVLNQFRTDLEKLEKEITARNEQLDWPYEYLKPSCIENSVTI
# In all, about 580,000 compounds went through this assay and about 6,100 (1.1%) were called active. This list was built around the results that the source calls inconclusive (neither active nor inactive); the mix of calls is not that of the screen. The call rests on the fitted dose curve; in most records, active means well fitted inhibition curve with a large enough effect; inconclusive means small, poorly fitted or top-dose-only effect, or another doubt; inactive means no such curve, though single readings can be large or run the other way. Where the call is inconclusive, the potency comes from a doubtful curve fit.
# Target: Polyunsaturated fatty acid lipoxygenase ALOX12 (Homo sapiens) (UniProt P18054)
# Assay: Primary qHTS assay for inhibitors of human arachidonate 12S-lipoxygenase (ALOX12): Round 2
# Conditions: purified 12hLO, xylenol orange hydroperoxide absorbance; activity change, negative = inhibition: at 108 µM (top of the series) unless noted
# Method in brief: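 Purified human 12hLO at 150 nM in 25 mM Hepes, 0.01% Triton X-100, pH 7.0, preincubated 15 min at room temperature with compound. Reaction started with 40 uM arachidonic acid, 30 min at room temperature. Hydroperoxide measured by Fe-xylenol orange, 573/405 nm absorbance ratio.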
# On the % scale 0 is the no-effect control and ±100 the full control effect; potency means the concentration at half of the fitted maximal effect.
SMILES,Potency,"activity change, negative = inhibition"
Brc1cccc(-c2nnn3c2nc(NCc2ccc4c(c2)OCO4)c2ccccc23)c1,"inconclusive: 89.1 µM [inhibitor, partial curve, poor fit]",–
CCOC(=O)c1c(-c2ccc(C)cc2)csc1/N=C/N(C)C,inactive,–
Cc1ccccc1-c1cncnc1NCc1cccs1,"inconclusive: 5.01 µM [inhibitor, full curve, poor fit]",–
NC(=O)c1c(NC(=O)CN2CCN(C(=O)C3CC3)CC2)sc2c1CCC2,inactive,–
O=C(Nc1cccnc1)c1ccc(COc2ccccc2Br)o1,inactive,–
C[C@@H](NC(=O)C1CC1)c1onc(-c2ccc(F)cc2)c1C(=O)O,inactive,–
Cc1occc1-c1nnc(SCC(=O)NC(C)c2ccc3c(c2)OCCO3)n1-c1ccccc1 (stereo unspecified),"inconclusive: 15.8 µM [inhibitor, partial curve, poor fit]",–
CCCCCCCCN1C(=O)[C@H](CC(=O)NCCCOC)C[C@@]2(C(=O)OC)CC(C)(C)CC=C12,"inconclusive: 50.1 µM [inhibitor, single point]",–
O=C(NCCc1ccccc1)Oc1ccc(Cl)cc1,inactive,–
COc1ccc(NC(=O)c2cc(C)on2)cc1OC,inactive,–
S=C(NCC1CCCO1)N1CCN(c2ccccc2)CC1 (stereo unspecified),inactive,–
c1ccc(OCCOCCN2CCN(C(c3ccccc3)c3ccccc3)CC2)cc1,"inconclusive: 50.1 µM [inhibitor, partial curve, poor fit]",–
COc1ccc2[nH]c(C)c(CCN(Cc3cccs3)C(=S)Nc3ccccc3)c2c1,inactive,–
CC(C)(C)c1cnc([C@@H]2COCCN2Cc2ccc(C(=O)O)cc2)[nH]1,"inconclusive: 5.01 µM [inhibitor, full curve]",–
CCCCn1nc2cc(C(=O)NCc3ccccc3)ccc2c1OCC,"inconclusive: 89.1 µM [inhibitor, single point]",–
O=C(CSc1nnnn1-c1ccccc1)c1ccc(Cl)s1,inactive,–
CN(C)CCCN(C(=O)C1=COCCO1)c1nc2ccc(Br)cc2s1,"inconclusive: 56.2 µM [inhibitor, partial curve, poor fit]",–
CCOCCCNC(=O)CN1CCN(c2ccc(F)cc2)CC1,"inconclusive: 0.447 µM [inhibitor, full curve, poor fit]",–
COc1ccc(NC(=O)CCc2nc(-c3ccc(C)cc3)no2)cc1S(=O)(=O)N1CCOCC1,"inconclusive: 100 µM [inhibitor, single point]",–
O=C(C1=Cc2cc(Cl)ccc2OC1)N1CCN(S(=O)(=O)c2ccc(F)cc2)CC1,"inconclusive: 11.2 µM [inhibitor, full curve, poor fit]",–
CC(C)c1cccc(C(C)C)c1OC(=O)NC(=O)c1c(F)cccc1F,inactive,–
O=C1NCCCCCCN(C(=O)c2ccncc2)[C@H]2C[C@H](c3nc(-c4cnccn4)no3)C[C@@H]12,"inconclusive: 17.8 µM [inhibitor, full curve, poor fit]",–
CCCNC(=O)N1CC(c2noc(C3CCCN3CC3CC3)n2)C1 (stereo unspecified),inactive,–
CCN(CC)CCC(c1cc(OC)c(OC)c(OC)c1)c1c(OC)cc(OC)c2c(C)cc(=O)oc12 (stereo unspecified),inactive,–

# In the list so far, 10 have sulfur:
SMILES,Potency,"activity change, negative = inhibition"
CCOC(=O)c1c(-c2ccc(C)cc2)csc1/N=C/N(C)C,inactive,–
Cc1ccccc1-c1cncnc1NCc1cccs1,"inconclusive: 5.01 µM [inhibitor, full curve, poor fit]",–
NC(=O)c1c(NC(=O)CN2CCN(C(=O)C3CC3)CC2)sc2c1CCC2,inactive,–
Cc1occc1-c1nnc(SCC(=O)NC(C)c2ccc3c(c2)OCCO3)n1-c1ccccc1 (stereo unspecified),"inconclusive: 15.8 µM [inhibitor, partial curve, poor fit]",–
S=C(NCC1CCCO1)N1CCN(c2ccccc2)CC1 (stereo unspecified),inactive,–
COc1ccc2[nH]c(C)c(CCN(Cc3cccs3)C(=S)Nc3ccccc3)c2c1,inactive,–
O=C(CSc1nnnn1-c1ccccc1)c1ccc(Cl)s1,inactive,–
CN(C)CCCN(C(=O)C1=COCCO1)c1nc2ccc(Br)cc2s1,"inconclusive: 56.2 µM [inhibitor, partial curve, poor fit]",–
COc1ccc(NC(=O)CCc2nc(-c3ccc(C)cc3)no2)cc1S(=O)(=O)N1CCOCC1,"inconclusive: 100 µM [inhibitor, single point]",–
O=C(C1=Cc2cc(Cl)ccc2OC1)N1CCN(S(=O)(=O)c2ccc(F)cc2)CC1,"inconclusive: 11.2 µM [inhibitor, full curve, poor fit]",–

# Three compounds already listed, sorted by formula weight, smallest number first:
SMILES,Potency,"activity change, negative = inhibition"
CCCCn1nc2cc(C(=O)NCc3ccccc3)ccc2c1OCC,"inconclusive: 89.1 µM [inhibitor, single point]",–
O=C(C1=Cc2cc(Cl)ccc2OC1)N1CCN(S(=O)(=O)c2ccc(F)cc2)CC1,"inconclusive: 11.2 µM [inhibitor, full curve, poor fit]",–
Brc1cccc(-c2nnn3c2nc(NCc2ccc4c(c2)OCO4)c2ccccc23)c1,"inconclusive: 89.1 µM [inhibitor, partial curve, poor fit]",–

# (next part)

SMILES,Potency,"activity change, negative = inhibition"
CCCCCOc1ccc(/C(C)=N/NC2=NCCN2)cc1,"inconclusive: 50.1 µM [inhibitor, partial curve, poor fit]",–
CCNc1ncc2ncc(=O)n(C3CC3)c2n1,"inconclusive: 5.62 µM [inhibitor, full curve, poor fit]",–
O=C1Nc2ccccc2CN(Cc2ccc(Cl)cc2)C12CCNCC2,"inconclusive: 39.8 µM [inhibitor, full curve]",–
Cc1cccc(CN2[C@H](COCc3ccccc3)C=CS2(=O)=O)c1,"inconclusive: 44.7 µM [inhibitor, partial curve, poor fit]",–
O=C(O)C[C@@H]1CCN(C(=O)Cc2ccccc2)C[C@@H]1CCN1CCN(c2ccccn2)CC1,"inconclusive: 3.16 µM [inhibitor, full curve, poor fit]",–
Cc1ccc(S(=O)(=O)NCc2ccncc2)cc1C,inactive,–
COc1ccc(CN2CCN(C(C)C(=O)N(C)Cc3cccc(F)c3)CC2)cc1OC (stereo unspecified),inactive,–
CCCc1noc(-c2ccn3c(CNC(=O)Cc4cccc(OC)c4)nnc3c2)n1,active: 44.7 µM,–
CCCN(Cc1ccccc1)C(=S)Nc1cccc(C(F)(F)F)c1,"inconclusive: 39.8 µM [inhibitor, partial curve, poor fit]",–
Cc1noc2c(NCCN3CCOCC3)cc(-c3ccc(Cl)cc3)nc12,"inconclusive: 100 µM [inhibitor, partial curve]",–
CCOCCn1ccc2c(OCC(=O)Nc3ccc(C(N)=O)cc3)cccc2c1=O,inactive,–
C=CCCC(=O)N1CCCC(Cc2cccc(Cl)c2)(C(=O)OCC)C1 (stereo unspecified),"inconclusive: 3.16 µM [inhibitor, full curve, poor fit]",–
O=C1NCc2ccccc2CC12CCN(Cc1cnc3ccccc3c1)C2 (stereo unspecified),"inconclusive: 39.8 µM [inhibitor, full curve]",–
COc1ccc(C(C(=O)NC2CCCC2)N(C(=O)c2snc(C(N)=O)c2N)c2ccccc2OC)cc1OC (stereo unspecified),inactive,–
Cc1cc(NC(=O)c2ccco2)ccc1NC(=O)c1ccco1,"inconclusive: 4.47 µM [inhibitor, full curve, poor fit]",–
CC(=O)NC12CC3CC(C1)CC(C(=O)NCc1cccc(Cl)c1)(C3)C2,"inconclusive: 31.6 µM [inhibitor, single point]",–
CCCc1nc2ccccc2c(NC(=O)CN(CC)CC)c1CC,"inconclusive: 2.51 µM [inhibitor, full curve, poor fit]",–
O=C(CSc1nc2ccccc2s1)Nc1cc(F)ccc1F,inactive,–
COc1ccc(C2NC(=O)N(C)C3=C2C(=O)N(c2ccc(Br)cc2)C3)cc1 (stereo unspecified),"inconclusive: 112 µM [inhibitor, partial curve, poor fit]",–
CC(=O)NC1(C)CCN(Cc2cccc(-c3ccc(N4CCOCC4)cc3)c2)C1 (stereo unspecified),"inconclusive: 50.1 µM [inhibitor, partial curve]",–
CCn1c(CCC(=O)Nc2cc(F)ccc2C)nc2cc(S(=O)(=O)N(C)C)ccc21,"inconclusive: 2 µM [inhibitor, full curve, poor fit]",–
NC(N)=NC(N)=Nc1ccc(O)cc1,inactive,–
COC(=O)c1cc(S(=O)(=O)N2CCN(c3ccc([N+](=O)[O-])cc3)CC2)c[nH]1,inactive,–
CCOc1cc(C(=O)N2CCN(c3cc(-c4ccc(Cl)cc4)[nH]n3)CC2)cc(OCC)c1OCC,inactive,–

SMILES,Potency,"activity change, negative = inhibition"
COC(=O)[C@@H](c1ccccc1Cl)N1CCc2sccc2C1,"inconclusive: 35.5 µM [inhibitor, partial curve, poor fit]",–
Cc1ccc(NC(=O)CCN2C(=O)CSC2=O)c(C)c1,"inconclusive: 2.82 µM [inhibitor, full curve, poor fit]",–
CN(C)c1ccc(CNC(=O)C2CCN(c3nc4ccccc4[nH]3)CC2)cc1,inactive,–
COc1cc(C(O)c2nc(-c3cncnc3)cs2)ccc1F (stereo unspecified),"inconclusive: 141 µM [inhibitor, partial curve, poor fit]",–
COc1cc(/C=C2\SC(=Nc3c(C)n(C)n(-c4ccccc4)c3=O)NC2=O)ccc1O,"inconclusive: 63.1 µM [inhibitor, partial curve, poor fit]",–
CC(C)C(C)NC(=O)c1ccc(I)cc1 (stereo unspecified),inactive,–
COc1ccc2cc(C(=O)N3CCN(c4ccccc4OC)CC3)[nH]c2c1,active: 15.8 µM,–
CN1CCc2cc(O)c(O)cc2C(c2ccccc2)C1 (stereo unspecified),"inconclusive: 50.1 µM [inhibitor, partial curve]",–
Cc1ccc(-c2nc(CS(=O)CC(=O)NCc3ccc(Cl)cc3)c(C)o2)cc1 (stereo unspecified),"inconclusive: 141 µM [inhibitor, single point]",–
CN(C)C[C@@H]1CN(C)C[C@H]1N,inactive,–
CCN1C(=O)[C@H]2[C@@H](c3ccc(C)cc3)N3C(=O)N(c4ccccc4)C(=O)[C@@]3(CC)[C@H]2C1=O,"inconclusive: 50.1 µM [inhibitor, single point]",–
COc1ccc2[nH]c(C)c(-c3csc(N)n3)c2c1,"inconclusive: 50.1 µM [inhibitor, partial curve, poor fit]",–
Cc1ccsc1/C=N/n1c(C2CCCCC2)n[nH]c1=S,"inconclusive: 50.1 µM [inhibitor, single point]",–
CC(C)CCN1CC(Oc2ccc(F)c(F)c2)C1,–,inactive: 5.79% [at 12.5 µM]
COc1ccc(-c2nn(-c3ccccc3)cc2C(=O)O)cc1N,"inconclusive: 0.794 µM [inhibitor, full curve, poor fit]",–
CS(=O)(=O)c1nc2ccccc2[nH]1,"inconclusive: 126 µM [inhibitor, single point]",–
CN(CC(=O)Nc1ccc(F)cc1)C(=O)CCc1nc2sc3c(c2c(=O)[nH]1)CCCC3,"inconclusive: 15.8 µM [inhibitor, partial curve, poor fit]",–
O=C(NC1CC1)c1sc2cc([N+](=O)[O-])ccc2c1Cl,inactive,–
O=S(=O)(NCCO)c1ccc(Cl)cc1,"inconclusive: 0.398 µM [inhibitor, full curve, poor fit]",–
Cc1ccc(CNc2nc3cc(-c4ccccc4)sc3c(=O)n2C)c(C)c1,inactive,–
COc1ccc(CC(=O)c2ccc(OC)c(OC)c2)cc1,inactive,–
Cc1ccc(S(=O)(=O)N2CCC(C(=O)NCc3ccccc3Cl)CC2)cc1,"inconclusive: 89.1 µM [inhibitor, partial curve, poor fit]",–
CCc1c(C2CC2)ncn1Cc1cccc(-c2ccccc2)c1,"inconclusive: 50.1 µM [inhibitor, partial curve, poor fit]",–
